Reference: PubChem BioAssay AID1224828 (NIAID, 2016)
Aim: 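Regulators linking TLR4 signalling to p65 nuclear translocation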 (primary screen). System: mouse RAW264.7 G9 macrophage reporter cells (GFP-p65, Tnf promoter-mCherry). Reagent: siRNA pool against mouse genes, 100 nM. Time to read-out: 2 days siRNA transfection, then 40 min LPS before fixation. Conditions: LPS (Salmonella minnesota R595) at 10 ng/ml. Measurement: 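Imaged p65 nuclear translocation ratio, normalised to the plate median, converted to robust z-scores and averaged across two replicates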. Scale: p65 translocation robust z-score: higher = more nuclear NF-kappaB p65 after LPS than the plate median; nuclear/cytoplasmic p65 ratio: higher = more nuclear NF-kappaB p65. Call rule: 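Active if robust z is above 3.3 (negative regulators) or below -1.56, the Tlr4 control median (positive regulators); activity score 50 or more; control wells not called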. Meaning of the calls: active = hit (p65 shift raised or lowered); inactive = no clear change.
The whole screen tested about 17,000 reagents; below is a random part of them. In the full data, 762 (4.5%) are marked active. 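Active calls include both raised and lowered p65 entry, mostly lowered; wells with fewer than 50 cells lack a z-score.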 Raw values vary from plate to plate and are shown uncorrected. A number with no mark means an inactive call. Reagents against one gene are numbered here.

The opening 2 records, ahead of the listing:
gene | reagent no. | p65 translocation robust z-score | nuclear/cytoplasmic p65 ratio, rep 1 | nuclear/cytoplasmic p65 ratio, rep 2 | low cell count flag
Ccndbp1 | 1 | -0.79 | 1.35 | 1.29 | enough cells to score
Snapc5 | 1 | -0.08 | 1.41 | 1.08 | enough cells to score

The listing, from the first entry:
gene | reagent no. | p65 translocation robust z-score | nuclear/cytoplasmic p65 ratio, rep 1 | nuclear/cytoplasmic p65 ratio, rep 2 | low cell count flag
Ccndbp1 | 1 | -0.79 | 1.35 | 1.29 | enough cells to score
Snapc5 | 1 | -0.08 | 1.41 | 1.08 | enough cells to score
Aldh5a1 | 1 | 1.97 | 1.81 | 1.55 | enough cells to score
1700010D01Rik | 1 | -1.08 | 1.3 | 1.23 | enough cells to score
Osbpl6 | 1 | 0.61 | 1.43 | 1.31 | enough cells to score
Rangrf | 1 | 1.54 | 1.62 | 1.35 | enough cells to score
Adcy10 | 1 | -1.38 | 1.47 | 1.18 | enough cells to score
Prss58 | 1 | -0.11 | 1.21 | 1.41 | enough cells to score
Slfn9 | 1 | – | 1.23 | 1.24 | fewer than 50 cells per well; well left out of scoring
Cit | 1 | 0.06 | 1.69 | 1.4 | enough cells to score
Cit | 2 | – | 1.28 | 1.32 | fewer than 50 cells per well; well left out of scoring
Eif5a2 | 1 | 0.23 | 1.49 | 1.35 | enough cells to score
Jkamp | 1 | – | 1.3 | 1.32 | fewer than 50 cells per well; well left out of scoring
Homer2 | 1 | 1.67 | 1.6 | 1.83 | enough cells to score
Zfp772 | 1 | 0.76 | 1.72 | 1.94 | enough cells to score
Pth2 | 1 | 1.16 | 1.49 | 1.34 | enough cells to score
Gpr176 | 1 | 0.42 | 1.6 | 1.61 | enough cells to score
Pea15a | 1 | -0.23 | 1.44 | 1.36 | enough cells to score
Fjx1 | 1 | 0.42 | 1.49 | 1.54 | enough cells to score
Wdr47 | 1 | -1.09 | 1.22 | 1.25 | enough cells to score
Pitpnc1 | 1 | 0.67 | 1.59 | 1.59 | enough cells to score
Nol6 | 1 | 2.24 | 2.07 | 1.84 | enough cells to score
Serac1 | 1 | 0.23 | 1.53 | 1.2 | enough cells to score
P2ry2 | 1 | -1.59 (active) | 1.2 | 1.44 | enough cells to score
